Assay results as given in publication PMC12133150.
Numbering of substitutions follows the chain as printed. In names and notes the source's numbering stands. Results are given in words; binding and its absence hold for the method and conditions named. Binding seen in cells or lysates may run through a third protein. Some entries that bind do so weakly or less than the wild type.

B1: hepatocyte nuclear factor 4 alpha (HNF4α) (protein, UniProt P41235 1-474)
chain: MRLSKTLVDMDMADYSAALDPAYTTLEFENVQVLTMGNDTSPSEGTNLNAPNSLGVSALCAICGDRATGKHYGASSCDGCKGFFRRSVRKNHMYSCRFSRQCVVDKDKRNQCRYCRLKKCFRAGMKKEAVQNERDRISTRRSSYEDSSLPSINALLQAEVLSRQITSPVSGINGDIRAKKIASIADVCESMKEQLLVLVEWAKYIPAFCELPLDDQVALLRAHAGEHLLLGATKRSMVFKDVLLLGNDYIVPRHCPELAEMSRVSIRILDELVLPFQELQIDDNEYAYLKAIIFFDPDAKGLSDPGKIKRLRSQVQVSLEDYINDRQYDSRGRFGELLLLLPTLQSITWQMIEQIQFIKLFGMAKIDNLLQEMLLGGSPSDAPHAHHPLHPHLMQEHMGTNVIVANTMPTHLSNGQMCEWPRPRGQAATPETPQPSPPGGSGSEPYKLLPGAVATIVKPLSAIPQPTITKQEVI
B2: HNF4α wild-type (transfected) (protein, UniProt P41235 1-474)
chain: B1 chain
B3: HNF4α-S313A (protein, UniProt P41235 1-474)
chain: B1 chain with S313A

Columns and labels:
[1] = target: Ten-eleven translocation 2 (TET2) (human (endogenous in HepG2)) (UniProt Q6N021); assay: co-IP; endogenous proteins of HepG2 cells, NP40 lysate; TET2 antibody and protein A beads, 3 hr at 4°C, then western blot; cells with or without glucagon, and with or without metformin (10 mM)
[2] = target: Ten-eleven translocation 2 (TET2) (human (endogenous in HepG2)) (UniProt Q6N021); assay: co-IP; HepG2 cells transfected with HNF4α wild-type or S313 mutants, NP40 lysate; TET2 antibody and protein A beads, 3 hr at 4°C, then western blot

Row | Binder | binding [1] | binding [2]
1 | B1 | binds | –
2 | B2 | – | binds
3 | B3 | – | binds
